Usually AC50 stands for the concentration at which the activity in the assay is half-maximal.

The other results are listed elsewhere or left out. Shown are side measurements of this screen, not its main read-out; they come without a call. Most of these compounds were active or inconclusive in the main read-out, so they are no random draw. Potencies come from curve fits of mixed quality, noted in brackets.

Data on 39 compounds can be found in PubChem BioAssay AID2685 (National Center for Advancing Translational Sciences (NCATS), 2010).

This test can be described thus: qHTS Assay for Lipid Storage Modulators in Drosophila S3 Cells.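 For cell number change: cells counted by Cell Tracker Red CMTPX staining in the red channel.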 The conditions noted are these: BODIPY lipid droplet fluorescence, 18-24 h; for cell number change: measured here: cell count max response, cells fed with added oleic acid. In a few lines:
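Drosophila S3 cells got compounds at several concentrations plus oleic acid (400 uM solution). Laser-scanning cytometry with 488 nm excitation read lipid droplets at 500-530 nm and cells at 575-640 nm. Percent activity was relative to 20 uM Triacsin C.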
On the technique in general: qHTS replaces the single test concentration by a dilution series.

[1] abbreviates: measured here: cell number channel AC50, cells fed with added oleic acid.
Setting [2] is: measured here: lipid fluorescence (Fed channel) AC50, cells fed with added oleic acid.

Take `CCOc1cc(S(=O)(=O)N(Cc2ccccc2)Cc2ccccc2)c(OCC)cc1-n1cnnn1`: the cell number change was -16.4%.

In the case of `CCCCn1c(NC(C)=O)c(C#N)c2nc3ccccc3nc21`, the cell number change is -33.8%. Besides, the half-maximal activity concentration (AC50) under setting [1] was 5.8 µM [falling, full curve, poor fit]. For the same compound, the AC50 under setting [2] is 7.31 µM [falling, partial curve].

Regarding `CC(=O)Nc1ccc(NS(=O)(=O)Cc2ccccc2)cc1`, the cell number change was -8.53%. Under setting [1], the AC50 was 0.0517 µM [falling, full curve, poor fit]. Also, under setting [2], the AC50 is 0.366 µM [falling, full curve, poor fit].

In the case of `CN(C)CCN(C(=O)c1ccc2c(c1)CCCC2)c1nc2c(F)cccc2s1`, the cell number change was found to be 36.9%. Also, the AC50 under setting [2] was 0.731 µM [rising, full curve, poor fit].

`CCN(CC)CCCN1C(=O)C(O)=C(C(C)=O)C1c1cccc(OC)c1` (configuration not stated): the cell number change was -23.6%. Besides, the AC50 under setting [2] is 3.26 µM [falling, partial curve].

On to `Cn1cnnc1SCC(=O)Nc1ccc2nc(SCc3ccccc3F)sc2c1`, for which the cell number change was 40.8%. For the same compound, under setting [1], the AC50 is 29.1 µM [rising, single point].

Regarding `Cc1cccc(-c2nc(C#N)c(NCC3CCCO3)o2)c1` (configuration not stated), the cell number change stood at 16.5%. Also, the AC50 under setting [2] is 5.8 µM [rising, full curve, poor fit].

Regarding `CC(C)(C)c1nn(-c2ccccc2)c2[nH]c(=O)c(CNCc3ccc4c(c3)OCO4)cc12`, the cell number change is -36.3%. Further, the AC50 under setting [1] is 6.51 µM [falling, partial curve]. Further, the AC50 under setting [2] was 7.31 µM [falling, partial curve].

`CCOCCCNC(=O)c1cc(Nc2ccc(OC)cc2OC)nc2ccccc12`: the cell number change was -12.5%. In addition, the AC50 under setting [2] is 29.1 µM [falling, single point].

Consider `COC(=O)c1ccc(C(=O)OC)c(NC(=O)CCC(=O)O)c1`, for which the cell number change was -2.27%. Further, under setting [2], the AC50 was 3.26 µM [rising, partial curve].

As to `Cc1ccc(-c2cc(C(=O)OC3CCOC3=O)c3ccccc3n2)c(C)c1` (configuration not stated), the cell number change worked out at 8.27%. In addition, the AC50 under setting [2] is 0.291 µM [falling, partial curve, poor fit].

Consider `C=CCN(c1ccccc1)S(=O)(=O)c1cccc(C(=O)N2CCCC2)c1`, for which, under setting [1], the AC50 was 2.31 µM [rising, partial curve].

As to `CCn1cnc2sc(C(=O)Nc3ccccc3OC)c(C)c2c1=O`, the cell number change was 18.4%. Moreover, under setting [2], the AC50 was 0.206 µM [rising, full curve].

In the case of `CC(C)C(=O)Nc1nc2c(ncn2C2CC(O)C(CO)O2)c(=O)[nH]1` (configuration not stated), the cell number change stood at 1.31%. Also, the AC50 under setting [2] is 18.4 µM [falling, single point].

For the compound `COc1ccc(NC(=O)COc2cccc3c2CCN(Cc2cccnc2)C3=O)c(OC)c1`, the cell number change was -31.4%. The AC50 under setting [1] is 11.6 µM [falling, single point]. For the same compound, the AC50 under setting [2] was 20.6 µM [falling, partial curve].

As for `Cc1ccc(N2C(=O)CC(Cn3nc(C)cc3C)C2=O)cc1` (configuration not stated), the cell number change was determined as 1.02%. The AC50 under setting [2] is 0.82 µM [falling, full curve, poor fit].

Regarding `CCNC(=O)/C(=C\C=C\c1ccccc1)NC(=O)c1ccc(Br)o1`, the cell number change is -10.3%. Besides, under setting [2], the AC50 is 18.4 µM [rising, partial curve].

Turning to `O=C(NCC1COc2ccccc2O1)c1cccc(S(=O)(=O)NCc2ccccc2)c1` (configuration not stated), the cell number change was -5.84%.

Regarding `O=C1CCc2cc(NS(=O)(=O)c3ccc([N+](=O)[O-])cc3)cc3c2N1CC3`, the cell number change was -10.5%.

Take `Cc1occc1-c1nnc(SCC(=O)Nc2ccccc2)n1Cc1ccccc1`: the cell number change amounted to 8.99%. Moreover, the AC50 under setting [2] was 0.366 µM [rising, full curve].

For the compound `Cc1ccc(SCC(=O)OCC(=O)N(C)CC(=O)Nc2ccc(F)cc2)cc1C`, the cell number change is -85.1%. Further, the AC50 under setting [1] is 13 µM [falling, partial curve].

Take `CC1CCN(CCCNC(=O)c2ccc(N3CCCC3=O)cc2)CC1`: the cell number change is -36.9%. The AC50 under setting [1] is 16.4 µM [falling, partial curve, poor fit].

As for `O=C(Nc1ccccc1)/C(=C\c1ccco1)NC(=O)c1ccco1`, the cell number change is -17.5%.

In the case of `CC(=O)c1cccc(NC(=O)CC2Oc3ccc(C)cc3NC2=O)c1` (configuration not stated), the cell number change was -4.26%.

As for `CCN1CCN(CCNC(=O)c2ccc(/C=C3/Sc4ccccc4N(Cc4cccc(Cl)c4)C3=O)cc2)CC1`, the cell number change was -18.4%. Also, the AC50 under setting [2] was 29.1 µM [falling, single point].

Consider `Cc1nnc2n(C3CCCCC3)c(=O)c3c4c(sc3n12)COC(C)(C)C4`, for which the cell number change is -2.33%. For the same compound, under setting [2], the AC50 is 2.91 µM [falling, full curve].

As for `CC1CCN(C(=O)C2COc3ccccc3O2)CC1` (configuration not stated), the cell number change was 12.6%. Also, the AC50 under setting [1] was 0.461 µM [falling, partial curve, poor fit]. The AC50 under setting [2] is 0.58 µM [falling, partial curve, poor fit].

Take `Cc1ccc(CNC(=O)c2ccc(F)c(S(=O)(=O)N3CCOCC3)c2)cc1`: under setting [1], the AC50 was 3.26 µM [rising, single point].

`COc1ccc(OCCCC(=O)NCc2ccco2)cc1`: the cell number change was -50.8%. The AC50 under setting [1] was 2.59 µM [falling, full curve].

As to `Fc1ccccc1CNc1cc(Cl)cc(Cl)c1`, the cell number change was -62.6%. The AC50 under setting [1] is 29.1 µM [falling, single point].

Consider `COc1ccc(NC(=O)CN2C(=O)COc3ccc(S(=O)(=O)N4CCOCC4)cc32)cc1Cl`, for which the cell number change was determined as 6.75%. The AC50 under setting [2] is 6.51 µM [rising, single point].

For the compound `CC(=O)NC(=S)Nc1ccc([N+](=O)[O-])cc1C`, the cell number change is -11.1%. Moreover, the AC50 under setting [1] is 0.651 µM [rising, partial curve, poor fit].

For the compound `O=C(COC(=O)c1ncc(Cl)c(Cl)c1Cl)c1ccc(Cl)s1`, the cell number change is -41.8%. The AC50 under setting [1] is 10.3 µM [falling, partial curve, poor fit]. The AC50 under setting [2] was 25.9 µM [falling, single point].

`O=C(CNC(=O)C1CCCCC1)Nc1ccccc1`: the cell number change is -2.67%. In addition, the AC50 under setting [1] is 0.731 µM [rising, partial curve, poor fit].

Turning to `Nc1nc(-c2ccco2)nn1C(=O)c1ccccc1`, the cell number change worked out at 16.6%. Also, the AC50 under setting [2] was 29.1 µM [rising, single point].

Consider `COc1ccc(CN2CCSCC2)cc1O`, for which the cell number change is -12.1%.

In the case of `CCOC(=O)Cn1cc(C=O)c2ccccc21`, the cell number change was -12%. Moreover, the half-maximal activity concentration (AC50) under setting [2] is 29.1 µM [falling, single point].

On to `CCC1CCCCN1CCCNC(=O)c1ccc2c(c1)N(Cc1c(F)cccc1Cl)C(=O)CS2` (configuration not stated), for which the cell number change was found to be 51.5%. Under setting [1], the AC50 was 29.1 µM [rising, single point].

`CC(Oc1ccc(Cl)cc1Cl)c1nc(-c2ccc(NC(=O)c3ccncc3)cc2)no1` (configuration not stated): the cell number change was -52.7%. Moreover, the AC50 under setting [1] is 7.31 µM [falling, partial curve]. In addition, the AC50 under setting [2] was 6.51 µM [falling, partial curve].
